# Data as given in PubChem BioAssay AID602313 (National Center for Advancing Translational Sciences (NCATS), 2012).
# Hit rate of the full screen: of about 390,000 compounds, about 760 (0.19%) were called active. Inconclusive means that the source gave no clear call. Such entries were picked first, then a sample of the others. Calls come from the whole dose curve; as a rule, active = well fitted inhibition curve with a large enough effect; inconclusive = small, poorly fitted or top-dose-only effect; inactive = flat fitted curve, though single readings scatter. Potencies of inconclusive entries are doubtful fits and often do not repeat.
# Test: qHTS for Inhibitors of Vif-A3F Interactions: qHTS; note: nearly all actives have a fitted effect of over 65% in size
# Details: HeLa A3F-eYFP + Vif (tagged APOBEC3F with the HIV-1 protein that degrades it), YFP fluorescence increase; series mostly up to 46.1 µM
# In short: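 HeLa cells stably expressing A3F-eYFP plus Vif, plated and incubated overnight at 37 deg C, then exposed to compounds overnight at 37 deg C. Blocked degradation read as raised yellow fluorescence (Ex 488/Em 500-530).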
# Potency is the fitted concentration of half-maximal effect.
row,SMILES,Potency
1,CC1(c2ccc(Cl)cc2)CC(C)(C)N(C(=O)c2cccc(F)c2)c2ccccc21 (configuration not stated),inactive
2,O=C(NCCN1CCCCC1)c1ccc(Cn2c(SCc3ccccc3)nc3cccnc32)cc1,"inconclusive: 35.5 µM [inhibitor, single point]"
3,O=C1c2cccc3cccc(c23)C(=O)N1Nc1ccccc1,"inconclusive: 5.62 µM [inhibitor, single point]"
4,CCOc1ccc(-c2cc(CCCC(=O)NCCc3cc(OC)c(OC)c(OC)c3)no2)cc1,inactive
5,COc1ccc2c(c1)c(/C=N/Nc1nc3ccccc3[nH]1)c(C)n2C,"inconclusive: 3.16 µM [inhibitor, single point]"
6,CC(=O)/C=C/c1ccc2ccccc2n1,inactive
7,O=C(Nc1ccc(Nc2ccccc2)cc1)C(Cl)Cl,inactive
8,CCOc1cc(/C=C2\SC(=S)N(NS(=O)(=O)c3ccccc3)C2=O)ccc1O,"inconclusive: 15.8 µM [inhibitor, single point]"
9,CCn1c2ccccc2c2cc(NC(=O)c3ccc(=O)oc3)ccc21,active: 11.2 µM
10,COc1ccc(-c2csc3ncnc(N4CCN(c5cccc(C)c5C)CC4)c23)cc1,"inconclusive: 1.78 µM [inhibitor, partial curve, poor fit]"
11,COc1ccc(OCC(=O)OCc2cc(=O)n3nc(C4CC4)sc3n2)cc1,inactive
12,O=C(CN1C(=O)NC2(CCCCCCC2)C1=O)Nc1ccc(Br)cc1,"inconclusive: 17.8 µM [inhibitor, single point]"
13,Cc1cccc(C)c1Oc1nc(-c2ccccc2)ncc1S(=O)(=O)c1ccccc1,inactive
14,CCN(CC(=O)Nc1ccc2c(c1)OCCO2)C(=O)CC1CCCC1,"inconclusive: 3.16 µM [inhibitor, partial curve, poor fit]"
15,Cc1cc2nc(-c3ccc(SCc4ccccn4)nc3)[nH]c2cc1C,inactive
16,Cc1oc2c(c1C(=O)Nc1cccc3ccccc13)CCCC2,inactive
17,CCOC(=O)C1=C(CSc2nc(-c3ccccc3)ccc2C#N)OC(N)=C(C#N)C1c1cccnc1 (configuration not stated),"inconclusive: 20 µM [inhibitor, single point]"
18,CSc1c(SCc2ccccc2)cnn(Cc2ccccc2)c1=O,"inconclusive: 35.5 µM [inhibitor, single point]"
19,O=C(N/N=C/c1ccccc1O)C1CCCC1,"inconclusive: 11.2 µM [inhibitor, partial curve, poor fit]"
20,CC1C/C(=C/c2cccs2)C(=O)/C(=C/c2cccs2)C1 (configuration not stated),"inconclusive: 3.55 µM [inhibitor, single point]"
21,Cc1c(C(=O)OC2CCCCC2)[nH]c2c1C(=O)CC(c1ccc(C(C)(C)C)cc1)C2 (configuration not stated),inactive
22,O=C1NC(=S)N/C1=C/c1ccc2c(c1)OCO2,"inconclusive: 35.5 µM [inhibitor, single point]"
23,O=C(Nc1ccc2c(c1)C(=O)OC2)c1ccc(Cl)cc1Cl,"inconclusive: 35.5 µM [inhibitor, single point]"
24,CC(=O)c1cc(NC(=O)c2ccc(C)cc2)c(=O)oc1/C=C/N(C)C,active: 12.6 µM

# A different layout for two compounds above.
row | SMILES | Potency
6 | CC(=O)/C=C/c1ccc2ccccc2n1 | inactive
7 | O=C(Nc1ccc(Nc2ccccc2)cc1)C(Cl)Cl | inactive

# The listing continues.

row,SMILES,Potency
1,O=c1cc(N2CCCCC2)c2ccccc2o1,"inconclusive: 6.31 µM [inhibitor, single point]"
2,O=C(Nc1nccs1)C1CCN(S(=O)(=O)c2cccnc2)CC1,inactive
3,C(=N\Nc1nc(N2CCCCC2)nc(N2CCCCC2)n1)/c1c[nH]c2ccccc12,inactive
4,Nc1ccc2ncccc2c1N,"inconclusive: 31.6 µM [inhibitor, single point]"
5,O=C(NCc1ccccc1)c1cccc2c1C(=O)c1ccc(/C=C/c3ccccc3)cc1S2(=O)=O,active: 10 µM
6,CCn1cc(C(=O)O)c(=O)c2cnc(N3CCN(C(=S)Nc4ccccc4Cl)CC3)nc21,"inconclusive: 11.2 µM [inhibitor, partial curve, poor fit]"
7,CCOC(=O)N1CCC(N(CCN(C)C)C(=S)Nc2cc(C)cc(C)c2)CC1,"inconclusive: 6.31 µM [inhibitor, single point]"
8,Cc1cc(=O)[nH]c(N/N=C/c2ccc(Cl)c([N+](=O)[O-])c2)n1,"inconclusive: 0.562 µM [inhibitor, full curve, poor fit]"
9,COc1ccccc1C(CNc1ccc(S(=O)(=O)N2CCCC2)cc1[N+](=O)[O-])N(C)C (configuration not stated),"inconclusive: 25.1 µM [inhibitor, single point]"
10,COc1cc(CNCc2ccc(SC)cc2)cc(OC)c1,inactive
11,CC1=C/C(=C\C=C(C#N)C#N)N(C)c2ccccc21,"inconclusive: 2.82 µM [inhibitor, full curve, poor fit]"
12,Nc1nc(-c2ccc(Oc3ccccc3)cc2)c(CC(=O)O)s1,"inconclusive: 15.8 µM [inhibitor, single point]"
13,CC(=O)N1CCc2c(sc(NC(=O)Cc3ccc(F)cc3)c2C#N)C1,inactive
14,COc1ccc(C(=O)c2sc3nc(-c4ccc(C)cc4)cc(C(F)(F)F)c3c2N)cc1,active: 1.26 µM
15,O=C(CSc1ccc(-c2ccco2)nn1)NCc1ccc(F)cc1,"inconclusive: 35.5 µM [inhibitor, single point]"
16,Cc1cc(N2CCCCC2)nc(NCc2ccccc2)n1,inactive
17,C[n+]1ccc(C(=O)N/N=C/c2ccco2)cc1,inactive
18,NC(=O)N=Nc1c2[nH]c3ccccc3nc-2c2ccccc12,"inconclusive: 10 µM [inhibitor, partial curve, poor fit]"
19,Cc1ccc(NC(=S)NC(=O)c2ccc(Br)o2)c(C)c1,"inconclusive: 7.94 µM [inhibitor, partial curve, poor fit]"
20,N#Cc1nc(-c2ccccc2Cl)oc1N1CCOCC1,inactive
21,C[C@@H]1CCC(=O)N(CC[C@H](Sc2ccc(Br)cc2)c2ccccc2)CC1,inactive
22,C=CCc1c(O)nc(SCC(=O)c2ccccc2)[nH]c1=O,"inconclusive: 35.5 µM [inhibitor, single point]"
23,CN(/N=C/c1ccc(-c2ccc([N+](=O)[O-])cc2)o1)c1ccccc1,"inconclusive: 1.58 µM [inhibitor, full curve, poor fit]"

# Quoted at random: 2 records from the list, in no set order.
row,SMILES,Potency
17,C[n+]1ccc(C(=O)N/N=C/c2ccco2)cc1,inactive
6,CCn1cc(C(=O)O)c(=O)c2cnc(N3CCN(C(=S)Nc4ccccc4Cl)CC3)nc21,"inconclusive: 11.2 µM [inhibitor, partial curve, poor fit]"
